Values of other authors as cited in patent publication US4237139A, “4-(3-(4-Quinolyl)propyl)piperidines, their preparation and their use as medicines” (Pharmindustrie, priority 1976, dated 1980).

Target: benzodiazepine receptors in rat brain membranes
Conditions: read-out: KD, the affinity constant; constant of ^3 H-diazepam used in the Ki equation; cited from earlier work

CN1C(=O)CN=C(c2ccccc2)c2cc(Cl)ccc21 [^3 H-diazepam]
Kd: 2.74 nM
